Screen size: about 580,000 compounds; about 6,100 (1.1%) were called active. The inconclusive results got no clear call from the source; some entries with a clear call stand among them for comparison. Calls come from the whole dose curve; as a rule, active = well fitted inhibition curve with a large enough effect; inconclusive = small, poorly fitted or top-dose-only effect, or another doubt; inactive = no such curve, though single readings can be large or run the other way. Potencies beside an inconclusive call are fits to weak or partial responses and may not hold up.
Molecular target: Polyunsaturated fatty acid lipoxygenase ALOX12 (Homo sapiens) (UniProt P18054)
Test: Primary qHTS assay for inhibitors of human arachidonate 12S-lipoxygenase (ALOX12): Round 2
Settings: purified 12hLO, xylenol orange hydroperoxide absorbance; activity change, negative = inhibition: at 108 µM (top of the series) unless noted
In short: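 Hydroperoxide product was detected by ferrous iron/xylenol orange as the 573 to 405 nm absorbance ratio. Arachidonic acid at 40 uM (final) was turned over for 30 min at room temperature by 150 nM human 12hLO, pH 7.0 Hepes buffer, after 15 min compound preincubation.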
% is set by controls: 0 for no effect and ±100 for the full control effect; potency is the fitted concentration of half-maximal effect.

The chains behind the UniProt entries cited, without tags or fusion partners. Where a name states a change or a piece, a line headed by the entry shows the natural chain unless it says otherwise.
UniProt P18054: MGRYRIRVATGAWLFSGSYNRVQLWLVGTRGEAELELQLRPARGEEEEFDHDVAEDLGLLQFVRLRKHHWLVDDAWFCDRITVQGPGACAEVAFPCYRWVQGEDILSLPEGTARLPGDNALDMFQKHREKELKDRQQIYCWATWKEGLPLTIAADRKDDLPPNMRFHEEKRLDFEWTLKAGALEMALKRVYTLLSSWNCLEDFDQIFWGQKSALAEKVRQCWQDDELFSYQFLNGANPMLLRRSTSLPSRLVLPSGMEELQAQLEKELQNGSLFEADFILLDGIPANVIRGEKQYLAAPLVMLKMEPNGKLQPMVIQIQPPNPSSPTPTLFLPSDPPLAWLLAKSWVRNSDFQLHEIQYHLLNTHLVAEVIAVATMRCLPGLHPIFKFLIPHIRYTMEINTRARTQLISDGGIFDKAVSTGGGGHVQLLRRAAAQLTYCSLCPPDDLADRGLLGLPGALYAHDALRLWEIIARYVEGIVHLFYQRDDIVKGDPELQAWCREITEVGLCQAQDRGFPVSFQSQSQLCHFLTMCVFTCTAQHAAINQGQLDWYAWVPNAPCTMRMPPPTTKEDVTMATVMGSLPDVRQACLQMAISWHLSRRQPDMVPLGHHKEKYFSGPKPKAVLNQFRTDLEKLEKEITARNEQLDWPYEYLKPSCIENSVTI

Row | Compound | Potency | activity change, negative = inhibition
1 | COP(=O)(OC)c1nc(-c2ccc(Cl)cc2)oc1NCc1cccnc1 | inconclusive: 141 µM [inhibitor, partial curve, poor fit] | 
2 | O=C(NCc1ccccc1)C1CCN(c2cnc3nccnc3c2)CC1 | inconclusive: 44.7 µM [inhibitor, partial curve] | 
3 | CC(=O)Nc1ccc(NC(=O)CC2C(=O)Nc3nc(C)nn32)cc1 (stereo not given) |  | inactive: -0.597%
4 | CC(C)c1ccc(C2C(C(=O)c3ccco3)=C(O)C(=O)N2CCN2CCOCC2)cc1 (stereo not given) | inconclusive: 141 µM [inhibitor, partial curve, poor fit] | 
5 | CC(C)Oc1ccc(C(CCNCc2ccc(O)cc2)c2ccccc2)cc1 (stereo not given) | active: 39.8 µM | 
6 | CS(=O)(=O)N1CCN(C(=O)C2c3ccccc3Oc3ccccc32)CC1 |  | inactive: 0%
7 | COc1ccc(-c2cc(-c3ccccc3O)[nH]n2)cc1OC | inconclusive: 50.1 µM [inhibitor, partial curve, poor fit] | 
8 | C(=N\N1CCN(C2c3ccccc3-c3ccccc32)CC1)/c1cccnc1 | inconclusive: 17.8 µM [inhibitor, partial curve, poor fit] | 
9 | Cc1cccc(N2C(N)=C(C#N)C3(C(=O)N(Cc4ccccc4F)c4ccccc43)C3=C2COC3=O)c1 (stereo not given) |  | inactive: 11%
10 | CCOc1ccc(N/C(SC)=C(/C#N)C(N)=O)cc1 | inconclusive: 31.6 µM [inhibitor, partial curve] | 
11 | O=C(CN1CCCCC1)Nc1cccc(Cl)c1 |  | inactive: 0%
12 | O=C(O)c1ccc[n+](Cc2ccc([N+](=O)[O-])cc2)c1 | inconclusive: 31.6 µM [inhibitor, partial curve, poor fit] | 
13 | COc1ccc(CC(=O)NC2CCN(c3cc(-c4ccc(Cl)cc4)[nH]n3)CC2)cc1OC |  | inactive: -1.1%
14 | Cc1noc(C)c1C(=O)OCC(=O)Nc1ccc(N2CCOCC2)cc1 | inconclusive: 126 µM [inhibitor, single point] | 
15 | Cc1ccc(C(=O)NCC(c2ccc3c(c2)OCO3)N2CCN(c3ccc(F)cc3)CC2)cc1 (stereo not given) | inconclusive: 112 µM [inhibitor, partial curve, poor fit] | 
16 | CCOc1ccccc1CN1CCCCCC1c1sccc1C (stereo not given) | inconclusive: 1.78 µM [inhibitor, full curve, poor fit] | 
17 | O=C(c1ccco1)N1CCN(CCCCOc2ccc(F)cc2)CC1 | active: 31.6 µM | 
18 | COc1ccc(CC(=O)NNC(=O)COc2ccc(Cl)cc2C)cc1S(=O)(=O)N1CCOCC1 |  | inactive: 4.76%

Row | Compound | Potency | activity change, negative = inhibition
19 | CCN(c1ccc(NC(=O)COC(=O)c2cccs2)cc1)C(C)C | inconclusive: 0.562 µM [inhibitor, full curve, poor fit] | 
20 | O=C1CCC2(CCNCC2)CCN1 | inconclusive: 17.8 µM [inhibitor, full curve, poor fit] | 
21 | CCC(C)NC(=O)Cn1cccc1-c1nc(-c2ccc(OC)c(F)c2)no1 (stereo not given) | inconclusive: 89.1 µM [inhibitor, single point] | 
22 | O=C(O)c1cccc(-c2cncc(C(=O)O)c2)c1 | inconclusive: 8.91 µM [inhibitor, full curve] | 
23 | OC(c1cccc(Cl)c1)c1ncc(-c2cccc(C(F)(F)F)c2)[nH]1 (stereo not given) | inconclusive: 56.2 µM [inhibitor, partial curve, poor fit] | 
24 | CCCNC(=O)c1ccc(COc2cccc3c2OC(C)(C)C3)cc1 |  | inactive: -6.17%
25 | CN(Cc1nc2ccc(F)cc2[nH]1)C(=O)CCc1cc2n(n1)CCCNC2 | inconclusive: 5.62 µM [inhibitor, full curve, poor fit] | 
26 | CC1=CC(=C(C#N)C#N)CC(C)(C)C1 | inconclusive: 89.1 µM [inhibitor, single point] | 
27 | Cc1ccc(C2Cn3nnc(C(=O)N4CCC(C(=O)NCc5ccccc5F)CC4)c3CO2)cc1 (stereo not given) |  | inactive: 27.8%
28 | CCCCCOc1ccc2c(C)c(CCCCC)c(=O)oc2c1 |  | inactive: -1.5%
29 | COc1cccc(CNc2ccc(F)c([N+](=O)[O-])c2)c1O | inconclusive: 44.7 µM [inhibitor, partial curve, poor fit] | 
30 | CC(C)c1ccc(OCC(=O)Nc2ccc3oc(-c4cccnc4)nc3c2)cc1 |  | inactive: -22%
31 | O=c1[nH]c(C2CCCN([S+](=O)([O-])c3cccc(C(F)(F)F)c3)C2)nn1-c1cccc(Cl)c1 (stereo not given) | inconclusive: 79.4 µM [inhibitor, partial curve, poor fit] | 
32 | COc1ccccc1CNC(=O)CC(C)n1ccc(C)n1 (stereo not given) |  | inactive: 10.8%
33 | O=C(CSc1nc(=O)n(CCN2CCOCC2)c2c1CCC2)Nc1ccc(OC(F)(F)F)cc1 | inconclusive: 126 µM [inhibitor, partial curve, poor fit] | 
34 | CC(C)c1ccc(S(=O)(=O)N(C)CC2CCOC2)cc1 (stereo not given) | inconclusive: 5.01 µM [inhibitor, full curve] | 
35 | CCCOc1cc(N(CC)CC)ccc1/C=C(/C#N)c1nc2ccc(C)cc2[nH]1 | inconclusive: 50.1 µM [inhibitor, partial curve, poor fit] | 

Laid out differently: 3 of the compounds above
CS(=O)(=O)N1CCN(C(=O)C2c3ccccc3Oc3ccccc32)CC1
  activity change, negative = inhibition: inactive: 0%
O=C(O)c1ccc[n+](Cc2ccc([N+](=O)[O-])cc2)c1
  Potency: inconclusive: 31.6 µM [inhibitor, partial curve, poor fit]
CCN(c1ccc(NC(=O)COC(=O)c2cccs2)cc1)C(C)C
  Potency: inconclusive: 0.562 µM [inhibitor, full curve, poor fit]

Source: PubChem BioAssay AID1671190 (National Center for Advancing Translational Sciences (NCATS), 2021)
